Test results reported in article PMC6069116.
No constants are given. Whether binding was seen depends on the method and setting. Binding seen in cells or lysates may run through a third protein. Binding calls can cover weak binding; strength is not graded here.

Tests used:
[1] = target: HrpG from Pseudomonas syringae pv. phaseolicola (Pseudomonas syringae pv. phaseolicola); experiment: pull-down
[2] = target: HrpG from Pseudomonas syringae pv. phaseolicola (Pseudomonas syringae pv. phaseolicola); experiment: pull-down; […]; 20 mM Tris pH 8.0, 50 mM NaCl; […]

B1: HrpJ from Pseudomonas syringae pv. phaseolicola (protein, UniProt Q05395 1-346)
chain: MKIVAPPTLPIRPVAPIRAITPAARAIPGSGLPDEKGTSSLQVSRFAAALVQHSRILRERELIASRNALQSRAVKLGELYQLLMSTSDTGLDNAARLLRKKLLQDNDADLEQVLEFADGDAAKAHVVLQAARKQAEDDGAEEEYAALTQTLKHLRRRFGPRARAGINTARAFGRQNIDNKRRTALRNLYGVAVSGQPNVTGLIEALIGEQQEPGEFDLNLRDMRRAIADDLSAITPSASHEQLRTLMHGLTTARHVTTLLRGCEHLLGRMRKKNPKLTVDPPAFLKHMLTLTANGMNVNQTLQLTQHIGGNKLEHQLAFLNGLRADADATADPALAGPEKPPGRAE
In the case of B1, the binding [1] is reported as “binds” and the binding [2] is reported as “binds”.
